One substance from paper doi:10.1101/2025.07.23.666382 can be followed below.

Amino acid sequences for entries named in this document (tags omitted). Residues count along the entry.
UniProt Q3UVX5, residues 19-1203: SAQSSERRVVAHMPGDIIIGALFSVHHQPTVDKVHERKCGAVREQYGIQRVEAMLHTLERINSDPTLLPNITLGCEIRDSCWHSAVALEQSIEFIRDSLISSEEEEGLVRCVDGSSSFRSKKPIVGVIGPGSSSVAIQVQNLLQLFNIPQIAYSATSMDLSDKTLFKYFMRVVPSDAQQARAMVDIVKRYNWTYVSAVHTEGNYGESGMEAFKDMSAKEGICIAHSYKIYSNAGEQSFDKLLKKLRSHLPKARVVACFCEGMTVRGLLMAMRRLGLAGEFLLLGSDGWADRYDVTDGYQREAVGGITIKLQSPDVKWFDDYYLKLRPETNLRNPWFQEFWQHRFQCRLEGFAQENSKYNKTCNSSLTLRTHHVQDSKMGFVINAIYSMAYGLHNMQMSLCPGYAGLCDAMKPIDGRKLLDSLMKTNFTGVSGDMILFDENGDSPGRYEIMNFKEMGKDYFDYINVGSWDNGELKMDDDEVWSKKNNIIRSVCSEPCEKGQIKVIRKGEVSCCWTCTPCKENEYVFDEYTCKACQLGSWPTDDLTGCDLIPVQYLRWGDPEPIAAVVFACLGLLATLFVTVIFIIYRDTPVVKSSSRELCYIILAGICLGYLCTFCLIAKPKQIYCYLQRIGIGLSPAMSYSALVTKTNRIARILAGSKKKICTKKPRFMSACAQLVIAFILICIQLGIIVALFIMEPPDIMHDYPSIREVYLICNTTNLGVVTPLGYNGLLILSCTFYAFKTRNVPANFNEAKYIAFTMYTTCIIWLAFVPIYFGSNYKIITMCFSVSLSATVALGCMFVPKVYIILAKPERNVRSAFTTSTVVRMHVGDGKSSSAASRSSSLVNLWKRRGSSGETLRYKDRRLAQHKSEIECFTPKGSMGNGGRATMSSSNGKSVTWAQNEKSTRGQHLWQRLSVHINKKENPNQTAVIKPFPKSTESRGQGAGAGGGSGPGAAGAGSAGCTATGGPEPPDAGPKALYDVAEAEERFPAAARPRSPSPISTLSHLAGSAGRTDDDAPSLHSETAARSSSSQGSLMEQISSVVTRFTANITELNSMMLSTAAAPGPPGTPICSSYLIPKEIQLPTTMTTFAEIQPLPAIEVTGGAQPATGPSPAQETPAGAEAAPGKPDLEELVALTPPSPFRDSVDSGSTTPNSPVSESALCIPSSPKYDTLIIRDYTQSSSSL
UniProt Q4ACU6: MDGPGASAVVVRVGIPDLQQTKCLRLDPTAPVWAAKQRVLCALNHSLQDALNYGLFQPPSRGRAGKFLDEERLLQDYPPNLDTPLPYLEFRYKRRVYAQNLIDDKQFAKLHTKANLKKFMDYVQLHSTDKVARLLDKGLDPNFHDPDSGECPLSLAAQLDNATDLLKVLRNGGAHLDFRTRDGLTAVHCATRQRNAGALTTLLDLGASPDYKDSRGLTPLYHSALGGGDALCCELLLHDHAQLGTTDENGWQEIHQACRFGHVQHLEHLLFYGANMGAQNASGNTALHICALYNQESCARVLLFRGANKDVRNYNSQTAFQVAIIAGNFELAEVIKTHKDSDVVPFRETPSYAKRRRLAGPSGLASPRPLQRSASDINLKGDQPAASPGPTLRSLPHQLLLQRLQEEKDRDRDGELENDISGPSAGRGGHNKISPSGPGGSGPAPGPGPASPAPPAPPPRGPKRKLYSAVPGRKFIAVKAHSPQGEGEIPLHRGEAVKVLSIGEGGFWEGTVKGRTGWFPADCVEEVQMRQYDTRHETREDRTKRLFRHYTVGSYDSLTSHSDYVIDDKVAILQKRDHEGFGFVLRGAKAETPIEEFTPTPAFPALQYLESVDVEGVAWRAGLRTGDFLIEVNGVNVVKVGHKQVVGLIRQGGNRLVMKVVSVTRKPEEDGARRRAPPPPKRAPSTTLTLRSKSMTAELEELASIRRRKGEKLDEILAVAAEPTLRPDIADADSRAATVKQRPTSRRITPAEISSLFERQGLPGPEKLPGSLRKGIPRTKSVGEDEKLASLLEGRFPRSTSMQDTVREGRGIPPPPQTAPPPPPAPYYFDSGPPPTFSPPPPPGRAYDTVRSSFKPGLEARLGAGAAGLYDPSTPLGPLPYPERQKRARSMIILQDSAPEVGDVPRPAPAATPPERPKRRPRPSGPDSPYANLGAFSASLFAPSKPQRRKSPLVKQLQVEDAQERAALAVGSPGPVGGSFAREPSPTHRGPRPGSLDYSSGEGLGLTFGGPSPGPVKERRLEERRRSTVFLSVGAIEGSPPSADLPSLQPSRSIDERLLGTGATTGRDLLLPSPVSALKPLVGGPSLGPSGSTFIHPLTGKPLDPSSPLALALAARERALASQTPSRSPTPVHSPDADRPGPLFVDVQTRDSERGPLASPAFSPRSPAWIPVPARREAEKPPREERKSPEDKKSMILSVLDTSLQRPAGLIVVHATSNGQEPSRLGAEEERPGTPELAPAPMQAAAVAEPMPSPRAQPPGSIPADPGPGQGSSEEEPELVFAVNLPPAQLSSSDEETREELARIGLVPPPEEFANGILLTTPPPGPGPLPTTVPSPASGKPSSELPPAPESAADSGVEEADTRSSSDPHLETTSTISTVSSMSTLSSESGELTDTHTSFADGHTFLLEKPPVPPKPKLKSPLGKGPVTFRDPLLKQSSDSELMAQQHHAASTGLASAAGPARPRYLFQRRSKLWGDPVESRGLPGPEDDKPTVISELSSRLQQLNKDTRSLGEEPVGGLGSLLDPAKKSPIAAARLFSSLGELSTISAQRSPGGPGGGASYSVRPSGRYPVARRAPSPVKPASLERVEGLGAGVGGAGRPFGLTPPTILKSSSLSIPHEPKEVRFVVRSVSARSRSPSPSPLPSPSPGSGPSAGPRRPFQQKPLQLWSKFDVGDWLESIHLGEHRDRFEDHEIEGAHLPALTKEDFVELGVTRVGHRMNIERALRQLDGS

These are yes or no findings as the source states them, for the method shown. Binding seen in cells or lysates may run through a third protein. Some entries that bind do so weakly or less than the wild type.

In this experiment the target is metabotropic glutamate 5 (mGlu5) receptor (mouse (endogenous in primary cortical neurons)) (UniProt Q3UVX5). The experiment can be described thus: proximity ligation.

As to “SH3 And Multiple Ankyrin Repeat Domains 3 (Shank3) (from UniProt Q4ACU6 1-1730)”, the binding result was “binds”.
